Measurements reported in article PMC4891058.
No constants are given. Whether binding was seen depends on the method and setting. Binding seen in cells or lysates may run through a third protein. Some results given as binding are weak or reduced against the parent protein; the word gives no strength.

Protein sequences, listed by entry. Tags and fused reporters are not part of them. Lines headed by an entry give the natural chain unless they say otherwise; changes in a name come on top.
UniProt P08151: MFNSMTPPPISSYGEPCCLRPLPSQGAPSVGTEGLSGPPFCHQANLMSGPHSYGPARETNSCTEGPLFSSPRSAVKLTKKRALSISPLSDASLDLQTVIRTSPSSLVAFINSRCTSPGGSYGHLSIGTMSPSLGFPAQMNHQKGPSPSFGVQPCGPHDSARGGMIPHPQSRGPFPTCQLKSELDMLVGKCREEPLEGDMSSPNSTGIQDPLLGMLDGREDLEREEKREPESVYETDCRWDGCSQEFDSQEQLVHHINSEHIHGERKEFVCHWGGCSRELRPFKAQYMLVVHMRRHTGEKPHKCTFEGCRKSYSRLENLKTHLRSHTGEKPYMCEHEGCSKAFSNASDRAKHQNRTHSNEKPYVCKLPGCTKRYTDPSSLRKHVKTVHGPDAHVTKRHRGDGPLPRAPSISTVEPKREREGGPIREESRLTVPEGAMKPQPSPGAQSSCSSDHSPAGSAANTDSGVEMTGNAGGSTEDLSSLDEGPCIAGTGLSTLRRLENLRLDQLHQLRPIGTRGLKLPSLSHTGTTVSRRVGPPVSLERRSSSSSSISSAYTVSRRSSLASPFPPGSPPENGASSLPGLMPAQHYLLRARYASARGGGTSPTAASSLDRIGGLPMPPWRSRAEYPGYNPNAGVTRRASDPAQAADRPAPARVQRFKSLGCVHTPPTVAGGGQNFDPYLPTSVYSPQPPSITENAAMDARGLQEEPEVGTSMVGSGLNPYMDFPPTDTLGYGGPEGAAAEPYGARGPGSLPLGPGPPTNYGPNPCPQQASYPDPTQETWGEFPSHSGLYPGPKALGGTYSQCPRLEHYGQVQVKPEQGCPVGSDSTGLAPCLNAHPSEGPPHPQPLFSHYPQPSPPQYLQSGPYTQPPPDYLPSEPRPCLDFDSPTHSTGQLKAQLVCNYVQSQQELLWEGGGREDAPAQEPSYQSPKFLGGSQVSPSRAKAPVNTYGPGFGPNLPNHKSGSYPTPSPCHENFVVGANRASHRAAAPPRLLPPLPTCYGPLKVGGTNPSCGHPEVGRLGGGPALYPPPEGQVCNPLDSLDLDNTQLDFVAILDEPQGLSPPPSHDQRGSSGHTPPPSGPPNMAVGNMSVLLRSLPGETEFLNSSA
UniProt P62258: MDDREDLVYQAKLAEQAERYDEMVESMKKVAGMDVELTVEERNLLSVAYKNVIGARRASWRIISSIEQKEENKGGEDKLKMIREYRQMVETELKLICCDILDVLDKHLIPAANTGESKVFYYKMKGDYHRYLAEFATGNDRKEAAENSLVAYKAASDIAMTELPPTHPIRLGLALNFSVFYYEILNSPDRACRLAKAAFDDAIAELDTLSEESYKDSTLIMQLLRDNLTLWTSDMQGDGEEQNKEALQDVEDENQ

Tests used:
[1] = biological target: Flag-Gli1 S408E mutant (human) (UniProt P08151); assay: co-IP; DAOY cells transfected with Flag-Gli1 (WT or mutant) and HA-14-3-3 epsilon; treated with or without A-769662 for the indicated times; Flag-Gli1 immunoprecipitated, western blot of eluted proteins with Flag and HA antibodies
[2] = biological target: Flag-Gli1 WT (human) (UniProt P08151); assay: as above

binding [1]: binds
binding [2]: binds
Substance: HA-14-3-3 epsilon (from UniProt P62258 1-255)
